Results as given in PMC11115282.
No constants are given. Whether binding was seen depends on the method and setting. In cells and extracts the contact can be indirect. Some binding calls cover weakened binding; strength is not graded here. Sequences can lack the tags named with a protein.

Biological target: zebrafish tbk1, Flag- or Myc-tagged (zebrafish)
Experiment: co-IP; HEK293T cells in 100-mm dishes transfected with the indicated plasmids (4 μg each), 24 h; total cell lysates immunoprecipitated with anti-Flag or anti-HA antibody-conjugated agarose beads; immunoblot for the tags; for the domain mapping (Fig 5A-B) cells were treated with 3-MA for 8 h and IP was with anti-HA beads

binding: binds
B1: zebrafish myosin-regulated light chain interacting protein b (mylipb), Myc- or Flag-tagged (protein, UniProt Q05AK5 1-464)
chain: MLCHITRPDSVVLEVEVDPKANGEDILNKICQKMGIIEVDYFGLQFTGTKGESLWMNLRNRICQEVDCVSPCRLRLRVKFFVEPHLILQEQTRHLFLMHVKEEIIKGSLRLDAEQAIELCALLAQAEFGDYKQNTAKYCYSQIYGQDPSHDTINTISLKHKSLEGVSQASAEYQALQLVSSLTYYGVEWHFARDSEGQQLLIGVGQEGLFVCKSDFTPIERLMYPVIQMATQSGRNVYVTITKDNGDSVVLLFKFVSPSAANGLYRAITEIHAFYRCDTVMSTVKMQYSRDFKGHLASLFLNESIDLGKRYIFDIQRTSKEVYDRTRRALFNAGVSVNGRGISRSLLRQTKVDREERMCVDCRETHVLKEKLQRLQEALTCALCCEQEISAAFCPCGHMFCCYNCASQLQCCPVCRSEVDRVQHVYLPTCASLLGLAEAKTTNSVLRRTGISEDCANKENARQM
